# PubChem BioAssay AID1259405 – NCATS – 2018
# Screen: 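Silenced genes that increase secreted GFP made by CHO cells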 (primary screen)
# Cell system: Chinese hamster CHO-K1 ovary cells with stable secreted eGFP expression
# Knock-down reagent: single siRNA against mouse genes, 0.8 pmol siRNA per well (2 µl of 400 nM stock)
# Time to read-out: 3 days
# Measured: 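Percent of the per-plate non-targeting control median for intracellular GFP per well by laser scanning cytometry and for cell viability by ATP luminescence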
# Direction: GFP, % of control: higher = more GFP per well, higher productivity; viability (ATP), % of control: higher = more viable cells (more ATP)
# Active means: 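a knock-down is called active if GFP reaches 120% or more of non-targeting control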
# In all, the deposit lists about 50,000 reagents; shown is an unselected part. In the full data, about 4,000 (8%) got an active call. 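Mouse siRNA library applied to hamster cells; one well for each siRNA.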 The numbers tell different reagents against one gene apart.
gene symbol,reagent,"GFP, % of control","viability (ATP), % of control",activity call
Tax1bp1 (Tax1 (human T cell leukemia virus type I) binding protein 1),1,32.5,35.6,inactive
Tax1bp1 (Tax1 (human T cell leukemia virus type I) binding protein 1),2,43,31.4,inactive
Tax1bp1 (Tax1 (human T cell leukemia virus type I) binding protein 1),3,63.6,56.1,inactive
H2az1 (H2A.Z variant histone 1),1,45.3,44.6,inactive
H2az1 (H2A.Z variant histone 1),2,53.4,80.5,inactive
H2az1 (H2A.Z variant histone 1),3,69.5,59.9,inactive
Uqcrh (ubiquinol-cytochrome c reductase hinge protein),1,84.7,87.3,inactive
Uqcrh (ubiquinol-cytochrome c reductase hinge protein),2,37.7,46.8,inactive
Uqcrh (ubiquinol-cytochrome c reductase hinge protein),3,64.1,47.2,inactive
Zkscan1 (zinc finger with KRAB and SCAN domains 1),1,74.1,102,inactive
Zkscan1 (zinc finger with KRAB and SCAN domains 1),2,48.6,84.9,inactive
Zkscan1 (zinc finger with KRAB and SCAN domains 1),3,72.2,99.3,inactive
Csrp3 (cysteine and glycine-rich protein 3),1,5.16,21.4,inactive
Csrp3 (cysteine and glycine-rich protein 3),2,49.6,59.5,inactive
Eef1a2 (eukaryotic translation elongation factor 1 alpha 2),1,35.2,43.7,inactive
Eef1a2 (eukaryotic translation elongation factor 1 alpha 2),2,83,87.8,inactive
Eef1a2 (eukaryotic translation elongation factor 1 alpha 2),3,43.1,41.7,inactive
Ttc39a (tetratricopeptide repeat domain 39A),1,58,68.4,inactive
Ttc39a (tetratricopeptide repeat domain 39A),2,57.7,57,inactive
Ttc39a (tetratricopeptide repeat domain 39A),3,66.5,89.4,inactive
Fsd1 (fibronectin type 3 and SPRY domain-containing protein),1,135,89.7,active
Fsd1 (fibronectin type 3 and SPRY domain-containing protein),2,132,109,active
Gchfr (GTP cyclohydrolase I feedback regulator),1,48.4,78.2,inactive
Gchfr (GTP cyclohydrolase I feedback regulator),2,87.8,59.5,inactive
Inpp5k (inositol polyphosphate 5-phosphatase K),1,87.1,101,inactive
Inpp5k (inositol polyphosphate 5-phosphatase K),2,55.5,68.7,inactive
Inpp5k (inositol polyphosphate 5-phosphatase K),3,50.7,61.6,inactive
Ankef1 (ankyrin repeat and EF-hand domain containing 1),1,115,63.4,inactive
Ankef1 (ankyrin repeat and EF-hand domain containing 1),2,99.1,94.1,inactive
Ankef1 (ankyrin repeat and EF-hand domain containing 1),3,93.3,97,inactive
Cxcl14 (C-X-C motif chemokine ligand 14),1,63.6,85.9,inactive
Cxcl14 (C-X-C motif chemokine ligand 14),2,78.2,70.2,inactive
Cxcl14 (C-X-C motif chemokine ligand 14),3,87.1,91.3,inactive
Taar4 (trace amine-associated receptor 4),1,71.3,129,inactive
Taar4 (trace amine-associated receptor 4),2,88.2,82.8,inactive
Taar4 (trace amine-associated receptor 4),3,59.1,53.1,inactive
Cers1 (ceramide synthase 1),1,43.2,54.3,inactive
Cers1 (ceramide synthase 1),2,61.8,57.5,inactive
Cers1 (ceramide synthase 1),3,97.4,139,inactive
Or2ah1 (olfactory receptor family 2 subfamily AH member 1),1,90.3,72.1,inactive
Or2ah1 (olfactory receptor family 2 subfamily AH member 1),2,74.8,54.3,inactive
Or2ah1 (olfactory receptor family 2 subfamily AH member 1),3,99.3,85.8,inactive
Arl8b (ADP-ribosylation factor-like 8B),1,45.9,56.2,inactive
Arl8b (ADP-ribosylation factor-like 8B),2,50.6,50.5,inactive
Arl8b (ADP-ribosylation factor-like 8B),3,86.7,78.4,inactive
Gphn (gephyrin),1,58.2,64.3,inactive
Gphn (gephyrin),2,107,39.5,inactive
Gphn (gephyrin),3,104,94.8,inactive
Or13p10 (olfactory receptor family 13 subfamily P member 10),1,136,84.4,active
Or13p10 (olfactory receptor family 13 subfamily P member 10),2,59.1,70.6,inactive
Or13p10 (olfactory receptor family 13 subfamily P member 10),3,54.4,55.1,inactive
Stx19 (syntaxin 19),1,25.8,23.4,inactive
Stx19 (syntaxin 19),2,43,58.1,inactive
Stx19 (syntaxin 19),3,45.3,28.5,inactive
Otx2 (orthodenticle homeobox 2),1,84.6,92.7,inactive
Otx2 (orthodenticle homeobox 2),2,77.5,90.9,inactive
Ubr1 (ubiquitin protein ligase E3 component n-recognin 1),1,79,57,inactive
Ubr1 (ubiquitin protein ligase E3 component n-recognin 1),2,88.2,82.1,inactive
Ubr1 (ubiquitin protein ligase E3 component n-recognin 1),3,78.4,90.6,inactive
Mtap (methylthioadenosine phosphorylase),1,68.7,91.9,inactive
Mtap (methylthioadenosine phosphorylase),2,48.9,61.9,inactive
Mtap (methylthioadenosine phosphorylase),3,98,115,inactive
Or2aj5 (olfactory receptor family 2 subfamily AJ member 5),1,28.4,18.1,inactive
Or2aj5 (olfactory receptor family 2 subfamily AJ member 5),2,124,47,active
Or2aj5 (olfactory receptor family 2 subfamily AJ member 5),3,63.7,78.3,inactive
Smim12 (small integral membrane protein 12),1,47,54.7,inactive
Smim12 (small integral membrane protein 12),2,95.4,87.7,inactive
Smim12 (small integral membrane protein 12),3,114,115,inactive
Or4f14 (olfactory receptor family 4 subfamily F member 14),1,86.7,63.8,inactive
Or4f14 (olfactory receptor family 4 subfamily F member 14),2,79.9,73.8,inactive
Or4f14 (olfactory receptor family 4 subfamily F member 14),3,56,76.4,inactive
Bcas3 (BCAS3 microtubule associated cell migration factor),1,108,127,inactive
Bcas3 (BCAS3 microtubule associated cell migration factor),2,52.7,70.9,inactive
Bcas3 (BCAS3 microtubule associated cell migration factor),3,129,158,active
Ccdc174 (coiled-coil domain containing 174),1,63,39,inactive
Ccdc174 (coiled-coil domain containing 174),2,67.5,82.9,inactive
Ccdc174 (coiled-coil domain containing 174),3,80,95.8,inactive
"Ppp1r1c (protein phosphatase 1, regulatory inhibitor subunit 1C)",1,139,82.1,active
"Ppp1r1c (protein phosphatase 1, regulatory inhibitor subunit 1C)",2,64.5,34.3,inactive
"Ppp1r1c (protein phosphatase 1, regulatory inhibitor subunit 1C)",3,93,68.3,inactive
Rcn1 (reticulocalbin 1),1,97.9,65.3,inactive
Rcn1 (reticulocalbin 1),2,66,50.8,inactive
Spryd7 (SPRY domain containing 7),1,61.6,79.1,inactive
Spryd7 (SPRY domain containing 7),2,110,116,inactive
Spryd7 (SPRY domain containing 7),3,64.3,115,inactive
